HELM strings list residues between dots; [ac] is acetyl, [am] amide, other brackets name non-standard units.

In patent US10080775B2 (CAREGEN CO., LTD., priority 2017, dated 2018) one finds crude mass and crude yield data, which are given here for 1 substance.

A short description of this series: general procedure: peptide synthesis; chloro trityl chloride resin. The following applies: whole synthesis.

The substance “PEPTIDE1{[Valproyl].I.W.S.L.D.T.Q.Y.G.G.R.G.D}$$$$V2.0” registered a crude mass of 0.8 g. The same substance showed a crude yield (scale of the general procedure 700 mg resin) of 89.0%.
